# Primary screen of a compound library

By UniProt entry, the sequences of proteins in these tests, tags left out.
UniProt E9BF75, entry or part of it: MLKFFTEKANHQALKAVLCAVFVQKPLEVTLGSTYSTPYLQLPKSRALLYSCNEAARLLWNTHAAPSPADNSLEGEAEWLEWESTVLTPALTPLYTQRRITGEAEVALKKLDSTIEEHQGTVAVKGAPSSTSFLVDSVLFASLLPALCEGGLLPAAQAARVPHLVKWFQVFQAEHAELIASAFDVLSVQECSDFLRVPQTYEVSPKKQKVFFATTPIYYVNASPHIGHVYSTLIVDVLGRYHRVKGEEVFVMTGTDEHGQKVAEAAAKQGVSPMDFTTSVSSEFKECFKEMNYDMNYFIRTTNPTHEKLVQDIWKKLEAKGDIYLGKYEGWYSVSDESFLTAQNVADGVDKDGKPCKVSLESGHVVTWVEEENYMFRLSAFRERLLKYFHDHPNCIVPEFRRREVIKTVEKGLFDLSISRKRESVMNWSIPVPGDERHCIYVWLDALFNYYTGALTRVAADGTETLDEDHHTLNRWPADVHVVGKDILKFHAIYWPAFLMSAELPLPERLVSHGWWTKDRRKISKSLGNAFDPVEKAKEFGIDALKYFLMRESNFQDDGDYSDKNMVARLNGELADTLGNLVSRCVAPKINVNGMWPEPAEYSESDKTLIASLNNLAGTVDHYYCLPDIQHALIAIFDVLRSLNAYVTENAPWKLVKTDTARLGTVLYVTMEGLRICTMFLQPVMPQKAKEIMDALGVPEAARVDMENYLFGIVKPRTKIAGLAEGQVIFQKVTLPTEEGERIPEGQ

Source: ChEMBL document CHEMBL3988442, “University of Dundee, Small-Polar-MMV Screening Library” (2021).

All values are in %.
How 0% and 100% were set is not recorded. Most values in the screen are low, and negative values occur.
This is an unselected part of the compounds tested.

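Primary screen of methionyl-tRNA synthetase; the read-out is not stated. Target: Methionyl-tRNA synthetase (putative), Leishmania donovani (UniProt E9BF75). The test concentration is not given. The values are filed as inhibition. About 68,000 compounds were tested under these conditions; 0.035% (about 24) showed 50% or more at least once.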

structure: CC(O)CN1CCC(CN(C)Cc2cccc(C#N)c2)CC1 (stereo not drawn)
Inhibition: 11.03

structure: COCCN1CCN(C(=O)N2CCCC2)Cc2ccc(C)nc21
Inhibition: 8.242

structure: CNc1nc(CNC(=O)Nc2ccc(OC)cc2C)cs1
Inhibition: 13.1

structure: COCCN1CCN(S(=O)(=O)c2ccccc2)Cc2cccnc21
Inhibition: 16.39

structure: CN1Cc2ccccc2N(CC(O)C(F)(F)F)CCC1=O (stereo not drawn)
Inhibition: 15.07

structure: CC(C)N(C(=O)CCc1cccc(F)c1)C1CCOCC1
Inhibition: 11.2

structure: Cc1cccc(OCCC(=O)NC(C)c2nnc3n2CCC3)c1 (stereo not drawn)
Inhibition: 11.35

structure: O=C(Cc1ccc(F)cc1)N1CCn2cc(Cn3cncn3)nc2C1
Inhibition: 14.93

structure: N#CCSCCCN1CCCN(C(=O)c2ccccc2)CC1
Inhibition: 11.5

structure: O=C(CN1CCCC1Cn1cccn1)NC1CCOCC1 (stereo not drawn)
Inhibition: 5.435

structure: COc1cccc(-n2nnc(C(=O)N3CCN(C(C)=O)CC3)c2C)c1
Inhibition: 11.72

structure: COCC(=O)N1CCC2(CCCN(Cc3cnn(C)c3)C2)C1 (stereo not drawn)
Inhibition: 19.37

structure: Cn1c(Cn2ccnc2)nnc1C1CCCN(C2CCCCC2)C1 (stereo not drawn)
Inhibition: 19.2

structure: N#Cc1ccc(S(=O)(=O)N2CC(CC(=O)O)c3ccccc32)cc1 (stereo not drawn)
Inhibition: 2.484

structure: c1cc(-c2nc(CN3CCc4c(ncn4C4CC4)C3)cs2)cs1
Inhibition: 29.18

structure: O=S(=O)(c1ccc(-c2nc3c([nH]2)CCNC3)cc1)N1CCCC1
Inhibition: 15.12

structure: Cn1c(C2CC2)nc2c1CCN(CC(=O)Nc1nccs1)C2
Inhibition: 10.84

structure: C=C(C)COc1cccc(CN(C)C(C)c2nccs2)c1 (stereo not drawn)
Inhibition: 7.125

structure: COCC(=O)N1CCC(c2cc3nc(C)cc(C(F)(F)F)n3n2)CC1
Inhibition: 4.037

structure: Cc1cccc(CO[C@@H]2CO[C@@]3(CCN(S(=O)(=O)N(C)C)C3)C2)n1
Inhibition: 17.79

structure: COCCN1CCCn2cnc(CNC(=O)N(C)C)c2C1
Inhibition: 6.62

structure: COCCn1cnc2c(F)cc(Br)cc2c1=O
Inhibition: 20.34

structure: O=S(=O)(NCCn1ccc(-c2ccncc2)n1)C1CC1
Inhibition: 6.832

structure: O=C(c1ncoc1-c1ccco1)N1CCCN(c2ncccn2)CC1
Inhibition: 15.19

structure: COCC(=O)N1CCOC2(CCCN(c3cnccn3)C2)C1 (stereo not drawn)
Inhibition: 13.87

structure: CNc1nc(C(=O)N2CCCCC2c2ccc(CN(C)C)cc2)cs1 (stereo not drawn)
Inhibition: 19.78

structure: NC(=O)CCn1cc(CNCc2csc(N)n2)c2ccccc21
Inhibition: -0.4819

structure: CCc1ccc(C(=O)NC2CCN(c3ccn(C)n3)C2)o1 (stereo not drawn)
Inhibition: 1.511

structure: c1ccc(OCCCN2CCN(c3ccc4nncn4n3)CC2)cc1
Inhibition: 32.79

structure: CC(Cn1ccnc1)NCc1csc2c1CCCC2 (stereo not drawn)
Inhibition: 13.17

structure: O=C(c1ccncc1)N1CCCn2nnc(COCCO)c2C1
Inhibition: 10.8

structure: Cc1nn(CC(C)C)c(N(C)C)c1CNCc1ccnn1C
Inhibition: 6.667

structure: CC(C)c1nnc2n1CCN(C(=O)c1ccc(OCC3CC3)cc1)C2
Inhibition: 8.591

structure: C[C@H]1C[C@@H]2CCN(Cc3ccco3)C[C@H]2O1
Inhibition: 8

structure: CSCC(CCO)NC(=O)Nc1cc(F)ccc1C (stereo not drawn)
Inhibition: 9.763

structure: COc1cncc(N2CCN(Cc3ccco3)CC2)n1
Inhibition: 12.01

structure: O=C1NCCN1C1CCN(Cc2ccccn2)CC1
Inhibition: 13.41

structure: COCCN(C)C(=O)c1nc2c(s1)CCCN2C(=O)C1CC1
Inhibition: 14.38

structure: COc1ncccc1C(=O)N1CCCC1c1nc(-c2ccccc2)n[nH]1 (stereo not drawn)
Inhibition: 11.11

structure: Cc1nccnc1CCC1COCCN1C(=O)CCc1c(C)noc1C (stereo not drawn)
Inhibition: 4.724

structure: COc1ccc(C(=O)N2CCC3(CC2)c2ccccc2[C@@H](N)[C@@H]3O)cc1
Inhibition: 16.19

structure: c1cncc(CN2CC[C@H]3O[C@@H](COCC4CC4)CC[C@H]32)c1
Inhibition: 5.923

structure: Cc1ccc(N2CCCC(NCC(=O)Nc3cc(C)nn3C)C2)nn1 (stereo not drawn)
Inhibition: 22.22

structure: CCN(CC1CCCN(CCc2cccc(OC)c2)C1)C(=O)CCSC (stereo not drawn)
Inhibition: 6.137

Repeated from the top, 4 entries:

structure	Inhibition
CC(O)CN1CCC(CN(C)Cc2cccc(C#N)c2)CC1 (stereo not drawn)	11.03
COCCN1CCN(C(=O)N2CCCC2)Cc2ccc(C)nc21	8.242
CNc1nc(CNC(=O)Nc2ccc(OC)cc2C)cs1	13.1
COCCN1CCN(S(=O)(=O)c2ccccc2)Cc2cccnc21	16.39